Here are results for two molecules from paper PMC6744468.

By UniProt entry, the sequences of proteins in these tests, tags left out.
UniProt O95166: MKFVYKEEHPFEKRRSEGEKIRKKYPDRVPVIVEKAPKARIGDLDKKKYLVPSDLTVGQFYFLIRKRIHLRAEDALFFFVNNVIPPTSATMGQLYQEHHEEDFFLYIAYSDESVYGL
UniProt P60520: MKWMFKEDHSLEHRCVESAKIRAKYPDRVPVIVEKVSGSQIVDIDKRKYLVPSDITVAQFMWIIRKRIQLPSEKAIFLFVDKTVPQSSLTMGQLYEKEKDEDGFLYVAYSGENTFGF

Results are given in words; binding and its absence hold for the method and conditions named. Binding seen in cells or lysates may run through a third protein. Some results given as binding are weak or reduced against the parent protein; the word gives no strength.

One test concerns the target GFP-GABARAP (human) (UniProt O95166). As to the kind of experiment: co-IP; GFP-trap precipitation of lysates of HEK293 cells transfected with GFP-tagged constructs (alone or with HA-PCM1 variants); immunoblot for endogenous proteins or HA. On the technique in general: Immunoblotting shows a protein as a band on a membrane.
A further test has as its target GFP-GABARAPL2 (human) (UniProt P60520). The test is described as above.

B1: OFD1, endogenous (protein, UniProt O75665 1-1012)
chain: MMAQSNMFTVADVLSQDELRKKLYQTFKDRGILDTLKTQLRNQLIHELMHPVLSGELQPRSISVEGSSLLIGASNSLVADHLQRCGYEYSLSVFFPESGLAKEKVFTMQDLLQLIKINPTSSLYKSLVSGSDKENQKGFLMHFLKELAEYHQAKESCNMETQTSSTFNRDSLAEKLQLIDDQFADAYPQRIKFESLEIKLNEYKREIEEQLRAEMCQKLKFFKDTEIAKIKMEAKKKYEKELTMFQNDFEKACQAKSEALVLREKSTLERIHKHQEIETKEIYAQRQLLLKDMDLLRGREAELKQRVEAFELNQKLQEEKHKSITEALRRQEQNIKSFEETYDRKLKNELLKYQLELKDDYIIRTNRLIEDERKNKEKAVHLQEELIAINSKKEELNQSVNRVKELELELESVKAQSLAITKQNHMLNEKVKEMSDYSLLKEEKLELLAQNKLLKQQLEESRNENLRLLNRLAQPAPELAVFQKELRKAEKAIVVEHEEFESCRQALHKQLQDEIEHSAQLKAQILGYKASVKSLTTQVADLKLQLKQTQTALENEVYCNPKQSVIDRSVNGLINGNVVPCNGEISGDFLNNPFKQENVLARMVASRITNYPTAWVEGSSPDSDLEFVANTKARVKELQQEAERLEKAFRSYHRRVIKNSAKSPLAAKSPPSLHLLEAFKNITSSSPERHIFGEDRVVSEQPQVGTLEERNDVVEALTGSAASRLRGGTSSRRLSSTPLPKAKRSLESEMYLEGLGRSHIASPSPCPDRMPLPSPTESRHSLSIPPVSSPPEQKVGLYRRQTELQDKSEFSDVDKLAFKDNEEFESSFESAGNMPRQLEMGGLSPAGDMSHVDAAAAAVPLSYQHPSVDQKQIEEQKEEEKIREQQVKERRQREERRQSNLQEVLERERRELEKLYQERKMIEESLKIKIKKELEMENELEMSNQEIKDKSAHSENPLEKYMKIIQQEQDQESADKSSKKMVQEGSLVDTLQSSDKVESLTGFSHEELDDSW
With B1, the binding entry with GFP-GABARAP (human) and with GFP-GABARAPL2 (human) was “binds” in each case.

B2: SSX2IP, endogenous (protein, UniProt Q9Y2D8 1-614)
chain: MGDWMTVTDPGLSSESKTISQYTSETKMSPSSLYSQQVLCSSIPLSKNVHSFFSAFCTEDNIEQSISYLDQELTTFGFPSLYEESKGKETKRELNIVAVLNCMNELLVLQRKNLLAQENVETQNLKLGSDMDHLQSCYSKLKEQLETSRREMIGLQERDRQLQCKNRNLHQLLKNEKDEVQKLQNIIASRATQYNHDMKRKEREYNKLKERLHQLVMNKKDKKIAMDILNYVGRADGKRGSWRTGKTEARNEDEMYKILLNDYEYRQKQILMENAELKKVLQQMKKEMISLLSPQKKKPRERVDDSTGTVISDVEEDAGELSRESMWDLSCETVREQLTNSIRKQWRILKSHVEKLDNQVSKVHLEGFNDEDVISRQDHEQETEKLELEIQQCKEMIKTQQQLLQQQLATAYDDDTTSLLRDCYLLEEKERLKEEWSLFKEQKKNFERERRSFTEAAIRLGLERKAFEEERASWLKQQFLNMTTFDHQNSENVKLFSAFSGSSDWDNLIVHSRQPQKKPHSVSNGSPVCMSKLTKSLPASPSTSDFCQTRSCISEHSSINVLNITAEEIKPNQVGGECTNQKWSVASRPGSQEGCYSGCSLSYTNSHVEKDDLP
For B2, the binding result with GFP-GABARAP (human) and with GFP-GABARAPL2 (human) was “binds” in each case.
